The subject of data set [1] is STAT1 / USF1 (U complex, nuclear extract of IFN-gamma stimulated Me67.8) (Homo sapiens). Description: EMSA. As to conditions: U complex, IFN-gamma stimulated; STAT1 antibody supershift, USF1 antibody; protein in an extract; label: 32P end label. Background: Mobility shift assays separate free from complexed probe on a gel.
The target in data set [2] is USF1 (L complex, Me67.8 nuclear extract) (Homo sapiens) (UniProt P22415). Nature of the data set: EMSA. The conditions noted are these: L complex, unstimulated or IFN-gamma stimulated extract; USF1 shown by antibody; protein in an extract; label: 32P end label.
For data set [3] the target is unchanged. Description: competition with a labelled probe. The conditions noted are these: L complex disrupted by E competitor; protein in an extract.

Chains of the proteins cited; added tags and fusions are not shown. Where a name states a change or a piece, a line headed by the entry shows the natural chain unless it says otherwise. A line that says so, or that is headed by a name, gives the form on record, which may keep a tag or linker.
UniProt P22415: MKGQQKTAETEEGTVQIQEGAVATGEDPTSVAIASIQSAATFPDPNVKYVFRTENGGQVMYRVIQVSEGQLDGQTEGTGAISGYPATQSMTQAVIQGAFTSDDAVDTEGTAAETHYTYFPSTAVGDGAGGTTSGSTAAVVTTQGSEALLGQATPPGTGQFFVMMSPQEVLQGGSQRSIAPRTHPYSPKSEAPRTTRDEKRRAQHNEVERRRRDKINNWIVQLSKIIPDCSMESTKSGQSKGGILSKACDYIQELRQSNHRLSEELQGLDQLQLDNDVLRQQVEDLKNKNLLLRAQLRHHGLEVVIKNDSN
STAT1 / USF1 (U complex, nuclear extract of IFN-gamma stimulated Me67.8) (Homo sapiens), one chain, as listed by the source, chain 2 of 2: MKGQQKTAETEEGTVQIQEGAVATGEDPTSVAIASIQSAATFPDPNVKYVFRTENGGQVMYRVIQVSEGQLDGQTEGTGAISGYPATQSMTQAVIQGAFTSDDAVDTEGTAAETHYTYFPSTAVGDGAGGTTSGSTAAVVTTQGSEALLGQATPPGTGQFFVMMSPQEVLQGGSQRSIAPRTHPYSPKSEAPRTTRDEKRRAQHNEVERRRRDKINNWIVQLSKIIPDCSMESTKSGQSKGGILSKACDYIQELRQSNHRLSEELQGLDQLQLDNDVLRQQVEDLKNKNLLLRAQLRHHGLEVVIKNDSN
STAT1 / USF1 (U complex, nuclear extract of IFN-gamma stimulated Me67.8) (Homo sapiens), one chain, as listed by the source, chain 1 of 2: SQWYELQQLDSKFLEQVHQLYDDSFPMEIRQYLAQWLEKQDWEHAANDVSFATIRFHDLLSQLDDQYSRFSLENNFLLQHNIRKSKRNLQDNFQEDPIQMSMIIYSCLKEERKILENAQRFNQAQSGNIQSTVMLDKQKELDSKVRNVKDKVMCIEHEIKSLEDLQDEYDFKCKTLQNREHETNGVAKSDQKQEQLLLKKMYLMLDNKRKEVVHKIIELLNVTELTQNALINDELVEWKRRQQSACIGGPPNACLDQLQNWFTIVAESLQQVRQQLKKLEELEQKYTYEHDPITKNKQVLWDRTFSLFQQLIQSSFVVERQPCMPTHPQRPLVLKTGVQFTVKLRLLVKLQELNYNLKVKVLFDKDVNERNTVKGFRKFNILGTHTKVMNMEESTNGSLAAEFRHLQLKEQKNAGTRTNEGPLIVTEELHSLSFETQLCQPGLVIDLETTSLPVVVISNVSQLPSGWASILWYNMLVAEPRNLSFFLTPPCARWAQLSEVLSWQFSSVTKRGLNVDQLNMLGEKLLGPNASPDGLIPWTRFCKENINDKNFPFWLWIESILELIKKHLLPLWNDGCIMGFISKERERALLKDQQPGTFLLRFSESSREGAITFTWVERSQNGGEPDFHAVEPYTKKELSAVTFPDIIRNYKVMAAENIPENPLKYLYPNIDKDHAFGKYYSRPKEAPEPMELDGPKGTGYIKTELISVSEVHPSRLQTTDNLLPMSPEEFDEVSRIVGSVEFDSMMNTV

Results from cells or extracts need not show a direct contact.

As to “GGCCAGGGATTGGGATGCGAGTTCTGATAAAGCAGGTGGTGGCCACAG (double strand) [NGE probe, CIITA promoter IV GAS/E-box region]”, the binding result in data set [1] and in data set [2] was “binds” throughout.

Regarding “GGGAAAGCACGTCCTGGCC (double strand) [E competitor (E-box)]”, in data set [3], the binding result is listed as “binds”.

For the origin of these results see patent publication US6379894.
